# Measured values reported in patent publication US20130280187A1, “Compositions and Methods for Improving the Appearance of Facial Pores” (THE PROCTER & GAMBLE COMPANY, priority 2012, published 2013).
# Several values for one entry are separate records, joined by “and”; a condition that tells them apart may be missing. Identical values can stand only once.
# System: procollagen I
# Assay: In vitro skin biomarker test, procollagen I ELISA in MatTek human skin equivalent
# Format: cell-based
# Conditions: single skin cultures, 24 hours after treatment; Glyco-Repair 3% topical, TGF-b 2 ng/mL in media
# Procedure: The model used in the test is a MatTek™ brand human skin equivalent available from the MatTek Corporation, which is a full thickness culture system that emulates normal human skin properties and function. The MatTek™ brand skin model contains a three-dimensional, highly differentiated human epidermis with 8-12 cell layers including basal, spinous, granular and stratum corneum layers. The epidermis is grown above a human dermal fibroblast-containing collagen matrix. The skin model is configured to permit the topical application of test materials to the stratum corneum surface of the model. The skin model cultures are supplied in 24-well plate. Each well of the plate includes a snap-well fitting and the skin culture in a media-supplemented agarose gel.
# Prior to testing, the skin model cultures are examined for visual defects and equilibrated overnight at 37° C., 5% CO2, and 95% RH. The skin cultures were transferred to fresh 24-well plates by removing the snap-well fitting along with the skin culture and placing it in a well of the new plate. […]
# Twenty-four hours after treatment, the skin cultures were removed from the incubator and visually inspected for defects (e.g., to see if media leaked up through the culture insert). […] The supernatant was collected and analyzed with a Micro BCA kit to quantitate protein concentration. […]
substance,measurement,value
transforming growth factor beta [TGF-b],Protein (total protein),2 µg and 3 µg
